Results reported in PubChem BioAssay AID540256 (National Center for Advancing Translational Sciences (NCATS), 2011).
Hit rate of the full screen: of about 300,000 compounds, about 3,700 (1.2%) were called active. Inconclusive results, whose numbers are uncertain, are shown with a selection of clear calls. The call rests on the fitted dose curve; tested in HEK293 cells. A potency beside an inconclusive call is a rough fit, not a confirmed value.

assay: qHTS for Inhibitors of binding or entry into cells for Lassa Virus; conditions: Lassa virus pseudotype entry inhibition, cell reporter; series mostly up to 37.9 µM; further: nearly all actives have a fitted effect of over 50% in size
Potency means the concentration at half of the fitted maximal effect.

| SMILES | Potency |
| --- | --- |
| CCOc1ccccc1NC(=O)CN1CCC(C(=O)c2ccc(F)cc2)CC1 | inconclusive: 35.5 µM [inhibitor, single point] |
| Cc1ccc2nc(SCC(=O)Nc3ccc(C)c([N+](=O)[O-])c3)[nH]c2c1 | inactive |
| COc1cccc(Nc2nc3ccccc3c(=O)[nH]2)c1 | inactive |
| CCOc1ccc(N(C(=O)c2ccc(Cl)cc2)S(=O)(=O)c2ccc3c(c2)n(C)c(=O)n3C)cc1 | inactive |
| COc1ccccc1NC(=O)CCN1C(=O)C2C3CCC(C3)C2C1=O (stereo not given) | inconclusive: 5.62 µM [inhibitor, single point] |
| CCOc1ccc2nc(SCc3ccc(C(=O)OC)o3)[nH]c2c1 | inactive |
| CCOc1ccc(CCNC(=O)c2cccc(Nc3nc4ccccc4nc3-n3nc(C)cc3C)c2)cc1OCC | inactive |
| CC1CCC(NC(=O)CNC(=O)c2cccs2)CC1 (stereo not given) | inactive |
| COc1ccc(S(=O)(=O)c2c(Nc3c(C)cccc3C)sc(C(=O)c3ccc(F)cc3)c2N)cc1 | inconclusive: 2.82 µM [inhibitor, full curve, poor fit] |
| CCCn1cc2c(c1-c1ccc(C)cc1)c(=O)n(C)c(=O)n2C | inconclusive: 3.98 µM [inhibitor, full curve, poor fit] |
| CCc1cccc(C)c1Nc1c(-c2ccc(SC)cc2)nc2sccn12 | inactive |
| COc1ccc(Nc2ncnc3c2cnn3Cc2ccccc2)cc1OC | inconclusive: 18.3 µM [inhibitor, single point] |
| CC1CCc2c(sc(NC(=O)CSc3nnc(-c4ccccc4)o3)c2C#N)C1 (stereo not given) | inconclusive: 35.5 µM [activator, partial curve, poor fit] |
| O=C(O)c1cc(S(=O)(=O)NCCOc2ccccc2)ccc1Cl | inactive |
| Cn1c(O)c(/C=C2/C=CC=N2)c(=O)[nH]c1=O | inconclusive: 17.8 µM [inhibitor, single point] |
| CCOC(=O)c1c(NC(=O)CN2CCCCC2)sc2c1CCN(C(=O)OCC)C2 | inconclusive: 20.6 µM [inhibitor, partial curve] |
| O=C(NC12CC3CC(CC(C3)C1)C2)N1CCN(c2ncccn2)CC1 | inconclusive: 2 µM [activator, partial curve, poor fit] |
| Cc1ccc(OCc2cc(C(=O)N(C)Cc3cnn(-c4ccccc4C)c3)no2)cn1 | active: 7.94 µM |
| CCCn1c2ccccc2c2cnn(CC(=O)NC3CCN(Cc4ccccc4)CC3)c(=O)c21 | inconclusive: 12.6 µM [inhibitor, partial curve] |
| COc1cccc2cc(-c3csc(NC(=O)CCC(=O)NCCCN4CCC(C)CC4)n3)c(=O)oc12 | inconclusive: 5.01 µM [inhibitor, full curve, poor fit] |
| CCOc1ccccc1NC(=O)C1CCC(CNS(=O)(=O)c2ccc3c(c2)CCCC(=O)N3)CC1 (stereo not given) | inactive |
| Cc1c(Cl)cnc(NC(=O)COC(=O)C(NC(=O)c2ccco2)C(C)C)c1Cl (stereo not given) | inactive |
| Cc1ccc(C)n1-c1ccc(-c2nnc3n2CCCCC3)s1 | inconclusive: 35.5 µM [inhibitor, single point] |
| Cc1ccc(C(=O)Nc2ccccc2C(=O)OCc2cc(=O)n3nc(C(C)C)sc3n2)cc1 | inactive |

| SMILES | Potency |
| --- | --- |
| CC(=O)N1CC(=O)Nc2ccc(F)cc2C1c1ccccc1 (stereo not given) | inconclusive: 2.82 µM [inhibitor, single point] |
| Cn1cccc1/C=N/NC(=O)Cc1cccc2ccccc12 | inconclusive: 35.5 µM [inhibitor, single point] |
| Cc1ccsc1-c1nc(-c2ccccc2)c(-c2ccccc2)[nH]1 | inactive |
| CCOC(=O)C1CCCN(c2nc3ccccc3nc2C(C#N)C(=O)NCc2ccccc2)C1 (stereo not given) | inconclusive: 17.8 µM [inhibitor, single point] |
| COc1ccc(CCNC(=O)C(C)OC(=O)c2nsc(Cl)c2Cl)cc1OC (stereo not given) | inconclusive: 2.82 µM [inhibitor, single point] |
| Oc1ccc(-c2[nH]ncc2-c2ccc(Cl)cc2)c(O)c1 | inconclusive: 32.6 µM [inhibitor, single point] |
| COc1ccc(C(=O)Nc2ccccc2C(=O)NCc2ccco2)cc1OC | inconclusive: 20.6 µM [inhibitor, single point] |
| CC(C)Oc1ccc(CN2CCc3nc(Nc4ccc5c(c4)OCCO5)ncc3C2)cc1 | inactive |
| COc1cccc(C(=O)/C=C/c2ccc(SC)cc2)c1 | inactive |
| O=C1c2ccccc2S(=O)(=O)N1CC(O)Cn1c2ccccc2c2ccccc21 (stereo not given) | inconclusive: 17.8 µM [inhibitor, single point] |
| CCOc1ccccc1N1CCN(C(=S)NC(=O)C23CC4CC(CC(C4)C2)C3)CC1 | inconclusive: 35.5 µM [inhibitor, single point] |
| Fc1ccc2nc(Nc3nc4c(s3)CCCC4)sc2c1 | inconclusive: 0.651 µM [activator, single point] |
| COCCN1Cc2cc3cc(C)ccc3nc2SC1=Nc1ccc(OC)cc1 | inconclusive: 20 µM [inhibitor, partial curve, poor fit] |
| CN(C)CCNC(=O)c1ccc(-n2c(-c3ccccc3)cc3c2CCCCC3)cc1 | inactive |
| O=C(NCCCl)Nc1ccccc1OCCOc1ccccc1NC(=O)NCCCl | inconclusive: 5.62 µM [inhibitor, single point] |
| CCN1CCc2c(sc(NC(=O)c3ccc(S(=O)(=O)N(CCOC)CCOC)cc3)c2C(N)=O)C1 | inconclusive: 10 µM [activator, partial curve, poor fit] |
| COc1ccc2oc(=O)c(C(C)=O)cc2c1 | inconclusive: 6.51 µM [inhibitor, partial curve, poor fit] |
| CCSc1ccccc1C(=O)Nc1nc2ccccc2c(=O)[nH]1 | inactive |
| O=C(Nc1ccc2c(c1)OCCO2)Nc1ccc2c(c1)OCO2 | active: 8.91 µM |
| COc1ccc(OC)c(NC(=O)COC(=O)CN(C)S(=O)(=O)c2ccc(C)cc2)c1 | inconclusive: 6.31 µM [inhibitor, single point] |
| Cc1nc(CS(=O)(=O)c2ccc(Cl)cc2)cc(Sc2ccccc2Cl)n1 | inconclusive: 25.1 µM [inhibitor, partial curve, poor fit] |
| CCn1cnc2sc(C(=O)Nc3ccc4c(c3)OCO4)c(C)c2c1=O | inconclusive: 6.31 µM [activator, single point] |
| O=C(Cn1cccc1C(=O)c1ccccc1)NCCCc1ccccc1 | inconclusive: 1.58 µM [activator, full curve, poor fit] |
| CNC(=O)COc1cccc(C(=O)NCc2ccccc2)c1 | inconclusive: 0.501 µM [inhibitor, partial curve, poor fit] |

| SMILES | Potency |
| --- | --- |
| Cc1ccc(SCCC(=O)N2CCCC2)cc1 | inconclusive: 10.3 µM [activator, partial curve, poor fit] |
| COc1ccc(Cn2nnnc2C(c2ccccn2)N2CCN(c3cc(Cl)ccc3C)CC2)cc1 (stereo not given) | inconclusive: 14.6 µM [inhibitor, partial curve, poor fit] |
| CN(Cc1nc2ccccc2c(=O)[nH]1)C(=O)c1cccc(S(=O)(=O)N2CCc3ccccc32)c1 | active: 3.98 µM |
| COc1cccc(C(=O)Nc2cc(C)on2)c1OC | inconclusive: 35.5 µM [activator, single point] |
| COc1ccc(CCNC(=O)Cn2nnc(-c3ccc(Cl)cc3)n2)cc1OC | inactive |
| CCC(=O)NC(Nc1sc2c(c1C(=O)OC)CCN(C)C2)(C(F)(F)F)C(F)(F)F | inactive |
| CCc1nn(CC(=O)N2CCC(C)CC2)c(=O)c2cc3occc3n12 | inconclusive: 7.94 µM [activator, partial curve, poor fit] |
| COC(=O)c1ccccc1-c1c2ccc(=N)cc-2oc2cc(N)ccc12 | active: 7.94 µM |
| COc1ccc([N+](=O)[O-])cc1Nc1ncnc2ccccc12 | inactive |
| C/C(N)=C(/C#N)C(=O)CSc1nc2ccccc2c(=O)n1Cc1ccc(C)cc1 | inconclusive: 22.4 µM [inhibitor, single point] |
| O=C(COC(=O)c1ccccc1)Nc1ncc([N+](=O)[O-])s1 | inconclusive: 17.8 µM [inhibitor, single point] |
| Cc1ccc(NC(=O)CSc2nc3ccccc3n2CC(=O)N2CCC(C)CC2)cc1C | inconclusive: 35.5 µM [inhibitor, single point] |
| COc1cc(/C=N/NS(=O)(=O)c2ccc(C)cc2)ccc1OCc1cccc(C(=O)O)c1 | inconclusive: 3.16 µM [inhibitor, partial curve, poor fit] |
| COc1ccc(C(=O)Nc2cccc(-c3cn4ccsc4n3)c2)c(OC)c1 | inconclusive: 12.6 µM [inhibitor, partial curve, poor fit] |
| CCOc1ccccc1C(c1c(O)nc(SC)[nH]c1=O)c1c(O)nc(SC)[nH]c1=O | inactive |
| O=[N+]([O-])c1ccccc1/C=N/N1CCN(c2ccccn2)CC1 | inconclusive: 10 µM [activator, partial curve, poor fit] |
| COc1ccccc1CNC(=O)CCC(=O)N1CC(C)Sc2ccccc21 (stereo not given) | inactive |
| CCCC(=O)OCC(=O)Nc1ccc(N=Nc2ccccc2)cc1 | inconclusive: 35.5 µM [inhibitor, single point] |
| N#Cc1ccc(-c2csc(NC3=NCCCCC3)n2)cc1 | inactive |
| C=CCOc1c(Br)cc(CNc2nccs2)cc1OC | inactive |
| C=C(C)C(O)C=Cc1ccc(Br)cc1 (stereo not given) | inconclusive: 0.0042 µM [activator, full curve, poor fit] |
| O=C(c1cnc2sccn2c1=O)N1CCc2ccccc2C1 | inconclusive: 0.206 µM [activator, full curve, poor fit] |

Looked up above:
Potency with `COc1cc(/C=N/NS(=O)(=O)c2ccc(C)cc2)ccc1OCc1cccc(C(=O)O)c1` is entered as inconclusive: 3.16 µM [inhibitor, partial curve, poor fit]
Potency with `C/C(N)=C(/C#N)C(=O)CSc1nc2ccccc2c(=O)n1Cc1ccc(C)cc1` is entered as inconclusive: 22.4 µM [inhibitor, single point]
